Assay results: the supplement of paper PMC10849652
The list shows a part of the results.

By UniProt entry, the sequences of proteins in these tests, tags left out. Where a name states a change or a piece, a line headed by the entry shows the natural chain unless it says otherwise.
UniProt O43818: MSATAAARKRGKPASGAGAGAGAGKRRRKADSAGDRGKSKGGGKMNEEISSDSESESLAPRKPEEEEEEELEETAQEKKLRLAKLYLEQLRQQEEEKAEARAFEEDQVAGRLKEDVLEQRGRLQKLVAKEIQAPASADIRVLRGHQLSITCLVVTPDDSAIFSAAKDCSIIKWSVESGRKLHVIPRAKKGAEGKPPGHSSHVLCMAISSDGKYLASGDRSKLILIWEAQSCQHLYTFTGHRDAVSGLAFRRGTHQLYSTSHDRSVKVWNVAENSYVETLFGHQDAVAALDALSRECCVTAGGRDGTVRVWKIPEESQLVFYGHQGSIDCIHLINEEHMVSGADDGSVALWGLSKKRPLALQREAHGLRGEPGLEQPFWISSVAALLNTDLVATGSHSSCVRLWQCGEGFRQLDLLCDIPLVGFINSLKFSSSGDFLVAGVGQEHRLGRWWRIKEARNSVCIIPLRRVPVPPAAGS
UniProt Q8WWV3: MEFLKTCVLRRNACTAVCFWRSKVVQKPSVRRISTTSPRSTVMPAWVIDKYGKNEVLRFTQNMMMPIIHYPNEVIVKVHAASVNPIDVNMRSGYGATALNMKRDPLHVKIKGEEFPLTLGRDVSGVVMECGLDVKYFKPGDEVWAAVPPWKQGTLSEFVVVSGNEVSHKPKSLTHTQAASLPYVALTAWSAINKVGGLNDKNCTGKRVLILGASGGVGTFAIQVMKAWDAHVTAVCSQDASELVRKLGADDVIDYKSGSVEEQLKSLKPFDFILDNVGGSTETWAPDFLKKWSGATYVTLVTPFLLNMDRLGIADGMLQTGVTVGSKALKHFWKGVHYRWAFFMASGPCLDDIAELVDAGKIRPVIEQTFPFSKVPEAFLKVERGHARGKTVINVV
UniProt Q9Y230, whole entry, looked up: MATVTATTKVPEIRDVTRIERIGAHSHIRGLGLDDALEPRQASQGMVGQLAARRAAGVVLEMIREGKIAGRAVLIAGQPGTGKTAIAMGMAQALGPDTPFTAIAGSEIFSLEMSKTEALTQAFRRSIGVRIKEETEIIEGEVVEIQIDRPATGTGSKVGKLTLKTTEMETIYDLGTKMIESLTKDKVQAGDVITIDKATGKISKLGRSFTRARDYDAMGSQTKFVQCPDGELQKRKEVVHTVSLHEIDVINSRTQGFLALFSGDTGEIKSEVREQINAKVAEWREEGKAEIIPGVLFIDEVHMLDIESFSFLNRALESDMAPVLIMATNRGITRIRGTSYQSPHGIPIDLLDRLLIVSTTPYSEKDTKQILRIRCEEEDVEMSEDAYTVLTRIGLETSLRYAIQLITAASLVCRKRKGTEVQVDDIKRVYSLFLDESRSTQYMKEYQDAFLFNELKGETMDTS
UniProt P05386, whole entry, looked up: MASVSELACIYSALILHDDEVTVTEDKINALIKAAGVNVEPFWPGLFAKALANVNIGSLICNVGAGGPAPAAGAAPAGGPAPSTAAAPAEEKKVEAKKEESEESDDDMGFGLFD
UniProt Q5VT52: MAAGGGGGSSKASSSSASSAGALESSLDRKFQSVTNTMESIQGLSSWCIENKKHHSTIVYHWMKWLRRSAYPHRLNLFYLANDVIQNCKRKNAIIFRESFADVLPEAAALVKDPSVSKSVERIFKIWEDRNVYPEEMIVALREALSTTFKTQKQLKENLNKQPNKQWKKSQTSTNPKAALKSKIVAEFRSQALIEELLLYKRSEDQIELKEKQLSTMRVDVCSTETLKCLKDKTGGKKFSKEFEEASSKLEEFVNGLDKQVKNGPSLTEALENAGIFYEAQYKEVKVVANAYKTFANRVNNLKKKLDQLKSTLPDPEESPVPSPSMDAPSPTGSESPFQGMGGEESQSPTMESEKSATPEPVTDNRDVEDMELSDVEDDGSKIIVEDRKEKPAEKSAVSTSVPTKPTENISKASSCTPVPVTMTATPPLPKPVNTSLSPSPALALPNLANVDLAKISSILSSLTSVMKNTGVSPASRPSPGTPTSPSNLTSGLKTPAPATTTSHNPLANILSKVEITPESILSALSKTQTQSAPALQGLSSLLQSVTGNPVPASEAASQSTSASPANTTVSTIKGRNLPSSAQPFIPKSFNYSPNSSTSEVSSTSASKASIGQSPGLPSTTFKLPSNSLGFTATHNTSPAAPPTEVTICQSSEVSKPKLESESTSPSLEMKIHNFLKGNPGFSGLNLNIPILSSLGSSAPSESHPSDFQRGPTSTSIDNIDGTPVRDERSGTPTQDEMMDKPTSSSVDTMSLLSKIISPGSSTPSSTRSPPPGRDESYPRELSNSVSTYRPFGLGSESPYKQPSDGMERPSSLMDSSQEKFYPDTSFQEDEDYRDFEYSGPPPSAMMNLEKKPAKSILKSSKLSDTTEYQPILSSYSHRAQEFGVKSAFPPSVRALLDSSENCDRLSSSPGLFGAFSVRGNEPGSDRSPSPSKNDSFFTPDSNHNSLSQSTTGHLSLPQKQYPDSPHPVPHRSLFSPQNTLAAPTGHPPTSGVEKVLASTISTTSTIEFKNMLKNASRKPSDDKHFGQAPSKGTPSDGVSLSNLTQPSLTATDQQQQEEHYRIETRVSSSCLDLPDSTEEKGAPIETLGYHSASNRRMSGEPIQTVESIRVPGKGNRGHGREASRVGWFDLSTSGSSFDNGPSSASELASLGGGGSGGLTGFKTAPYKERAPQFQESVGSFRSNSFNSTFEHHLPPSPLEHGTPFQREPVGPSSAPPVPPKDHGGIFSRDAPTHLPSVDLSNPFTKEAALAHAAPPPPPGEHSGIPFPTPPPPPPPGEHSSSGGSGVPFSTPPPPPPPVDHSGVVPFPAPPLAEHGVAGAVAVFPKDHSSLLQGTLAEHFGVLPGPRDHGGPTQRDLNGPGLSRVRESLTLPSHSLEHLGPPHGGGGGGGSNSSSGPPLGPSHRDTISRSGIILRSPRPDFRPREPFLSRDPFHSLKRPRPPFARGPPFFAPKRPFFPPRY
UniProt O95197: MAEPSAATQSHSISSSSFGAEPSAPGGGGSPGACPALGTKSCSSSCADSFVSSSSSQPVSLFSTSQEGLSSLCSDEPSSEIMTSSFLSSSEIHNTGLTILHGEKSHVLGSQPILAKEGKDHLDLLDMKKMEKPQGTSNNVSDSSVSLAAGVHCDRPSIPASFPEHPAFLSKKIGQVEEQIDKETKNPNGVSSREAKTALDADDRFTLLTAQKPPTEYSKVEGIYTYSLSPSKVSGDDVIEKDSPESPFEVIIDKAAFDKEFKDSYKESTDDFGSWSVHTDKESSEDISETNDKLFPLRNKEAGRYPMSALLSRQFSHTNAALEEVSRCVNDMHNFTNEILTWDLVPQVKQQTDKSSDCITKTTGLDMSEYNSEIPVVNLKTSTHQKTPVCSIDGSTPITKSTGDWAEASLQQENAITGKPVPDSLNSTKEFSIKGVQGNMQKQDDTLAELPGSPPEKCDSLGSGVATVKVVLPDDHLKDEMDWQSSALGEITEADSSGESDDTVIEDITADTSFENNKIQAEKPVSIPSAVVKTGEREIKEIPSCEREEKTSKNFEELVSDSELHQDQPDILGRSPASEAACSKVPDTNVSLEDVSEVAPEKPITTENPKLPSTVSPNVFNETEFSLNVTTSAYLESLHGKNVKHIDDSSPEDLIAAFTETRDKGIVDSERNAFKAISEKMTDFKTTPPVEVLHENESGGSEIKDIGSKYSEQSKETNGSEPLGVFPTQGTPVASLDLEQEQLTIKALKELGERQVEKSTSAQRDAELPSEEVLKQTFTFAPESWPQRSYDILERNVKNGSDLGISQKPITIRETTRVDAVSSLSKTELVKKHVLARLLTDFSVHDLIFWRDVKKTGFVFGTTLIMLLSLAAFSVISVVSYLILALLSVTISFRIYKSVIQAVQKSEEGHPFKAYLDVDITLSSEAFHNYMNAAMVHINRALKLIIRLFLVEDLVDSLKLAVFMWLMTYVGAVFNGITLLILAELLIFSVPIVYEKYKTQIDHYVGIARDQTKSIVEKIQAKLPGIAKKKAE
UniProt Q9BUL9: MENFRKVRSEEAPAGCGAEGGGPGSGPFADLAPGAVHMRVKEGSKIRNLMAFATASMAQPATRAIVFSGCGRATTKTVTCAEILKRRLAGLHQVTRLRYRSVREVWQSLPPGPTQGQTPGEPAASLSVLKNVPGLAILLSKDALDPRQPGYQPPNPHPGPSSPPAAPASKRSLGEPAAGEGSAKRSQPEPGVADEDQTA
UniProt Q7LG56, whole entry, looked up: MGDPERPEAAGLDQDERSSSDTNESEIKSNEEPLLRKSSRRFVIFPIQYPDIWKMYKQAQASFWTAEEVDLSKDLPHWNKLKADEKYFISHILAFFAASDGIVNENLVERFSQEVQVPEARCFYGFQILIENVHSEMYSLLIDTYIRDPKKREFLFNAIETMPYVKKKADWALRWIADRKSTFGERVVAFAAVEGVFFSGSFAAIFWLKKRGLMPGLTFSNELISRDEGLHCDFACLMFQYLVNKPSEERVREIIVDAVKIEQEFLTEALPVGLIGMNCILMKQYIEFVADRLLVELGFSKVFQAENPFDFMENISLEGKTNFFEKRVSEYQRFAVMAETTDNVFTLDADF
UniProt Q7L099: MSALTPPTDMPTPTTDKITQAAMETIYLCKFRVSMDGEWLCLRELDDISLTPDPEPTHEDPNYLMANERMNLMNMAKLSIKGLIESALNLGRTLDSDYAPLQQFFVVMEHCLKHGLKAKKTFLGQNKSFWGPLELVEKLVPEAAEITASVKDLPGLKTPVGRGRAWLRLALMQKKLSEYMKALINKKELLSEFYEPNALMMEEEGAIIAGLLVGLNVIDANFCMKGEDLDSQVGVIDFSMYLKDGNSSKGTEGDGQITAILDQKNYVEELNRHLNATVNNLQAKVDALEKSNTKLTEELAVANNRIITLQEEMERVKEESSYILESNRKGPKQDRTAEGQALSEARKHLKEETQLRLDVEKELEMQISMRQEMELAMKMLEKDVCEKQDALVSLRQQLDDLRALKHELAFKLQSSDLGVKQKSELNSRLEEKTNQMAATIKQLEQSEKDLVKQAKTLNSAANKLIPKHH
UniProt Q9H446: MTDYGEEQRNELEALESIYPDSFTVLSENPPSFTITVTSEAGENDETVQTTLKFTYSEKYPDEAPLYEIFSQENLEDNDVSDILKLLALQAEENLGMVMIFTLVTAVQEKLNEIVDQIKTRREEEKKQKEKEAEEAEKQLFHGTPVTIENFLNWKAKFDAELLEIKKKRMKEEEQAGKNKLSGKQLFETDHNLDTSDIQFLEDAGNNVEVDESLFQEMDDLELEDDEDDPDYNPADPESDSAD

How the values were obtained:
Assay in all cases: log2 fold change, soluble protein after heating vs DMSO (PISA); higher = thermal stabilisation; K562 lysate, 10 uM; active = over 0.2 and 3.5 SD of the protein, either way, in both replicates (recomputed)
lapatinib = compound: CS(=O)(=O)CCNCc1ccc(-c2ccc3ncnc(Nc4ccc(OCc5cccc(F)c5)c(Cl)c4)c3c2)o1 [lapatinib]
Procedure, shortened: (§1)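 K562 pellets were dounce-homogenised in PBS pH 7.4 with 1 mM MgCl2, and the crude extract at 1 mg/mL protein was treated with 10 μM compound for 30 min. Aliquots were heated for 3 min across 48°C-58°C, pooled, and brought to 0.5% NP-40 at 4°C; soluble protein was the supernatant after 21,000xg for 90 min. Soluble protein was quantified by TMTpro 16plex LC-MS/MS with channel sums equalised, and reported as log2 fold change in thermal stability against DMSO controls, with values from duplicates.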

pictilisib = compound: CS(=O)(=O)N1CCN(Cc2cc3nc(-c4cccc5[nH]ncc45)nc(N4CCOCC4)c3s2)CC1 [pictilisib]
Procedure, shortened: as §1

crizotinib = compound: C[C@@H](Oc1cc(-c2cnn(C3CCNCC3)c2)cnc1N)c1c(Cl)ccc(F)c1Cl [crizotinib]
Procedure, shortened: as §1

[1] = compound: C[C@H](C1=CC=C(C=C1)C(=O)NC2=C3C=CNC3=NC=C2)N
Procedure, shortened: as §1

duvelisib = compound: C[C@H](Nc1ncnc2nc[nH]c12)c1cc2cccc(Cl)c2c(=O)n1-c1ccccc1 [duvelisib]
Procedure, shortened: as §1

gandotinib = compound: Cc1cc(Nc2cc(CN3CCOCC3)c3nc(C)c(Cc4ccc(Cl)cc4F)n3n2)n[nH]1 [gandotinib]
Procedure, shortened: as §1

tozasertib = compound: Cc1cc(Nc2cc(N3CCN(C)CC3)nc(Sc3ccc(NC(=O)C4CC4)cc3)n2)n[nH]1 [tozasertib]
Procedure, shortened: as §1

doramapimod = compound: Cc1ccc(-n2nc(C(C)(C)C)cc2NC(=O)Nc2ccc(OCCN3CCOCC3)c3ccccc23)cc1 [doramapimod]
Procedure, shortened: as §1

bafetinib = compound: Cc1ccc(NC(=O)c2ccc(CN3CC[C@H](N(C)C)C3)c(C(F)(F)F)c2)cc1Nc1nccc(-c2cncnc2)n1 [bafetinib]
Procedure, shortened: as §1

[2] = compound: Cc1cccc(CC(=O)N2CCc3c2ccc(-c2cn(C)c4ncnc(N)c24)c3F)n1
Procedure, shortened: as §1

nilotinib = compound: Cc1cn(-c2cc(NC(=O)c3ccc(C)c(Nc4nccc(-c5cccnc5)n4)c3)cc(C(F)(F)F)c2)cn1 [nilotinib]
Procedure, shortened: as §1

[3] = compound: Cc1nc(Nc2n[nH]c3c2CN(C(=O)N[C@H](CN(C)C)c2ccccc2)C3(C)C)c2sccc2n1
Procedure, shortened: as §1

dasatinib = compound: Cc1nc(Nc2ncc(C(=O)Nc3c(C)cccc3Cl)s2)cc(N2CCN(CCO)CC2)n1 [dasatinib]
Procedure, shortened: as §1

[4] = compound: Cc1ncc(-c2ccnc(Nc3ccc(S(C)(=O)=O)cc3)n2)n1C(C)C
Procedure, shortened: as §1

[5] = compound: Cn1cc(-c2ccc3c(c2)CCN3C(=O)Cc2cccc(C(F)(F)F)c2)c2c(N)ncnc21
Procedure, shortened: as §1

quisinostat = compound: Cn1cc(CNCC2CCN(c3ncc(C(=O)NO)cn3)CC2)c2ccccc21 [quisinostat]
Procedure, shortened: as §1

tipifarnib = compound: Cn1cncc1[C@@](N)(c1ccc(Cl)cc1)c1ccc2c(c1)c(-c1cccc(Cl)c1)cc(=O)n2C [tipifarnib]
Procedure, shortened: as §1

[6] = compound: NC(=O)Nc1cc(-c2cccc(F)c2)sc1C(=O)N[C@H]1CCCNC1
Procedure, shortened: as §1

[7] = compound: NC(=O)c1cnc(N[C@@H]2CCCC[C@@H]2N)nc1Nc1cccc(-n2nccn2)c1
Procedure, shortened: as §1

[8] = compound: NC1(c2ccc(-c3nc4ccn5c(=O)[nH]nc5c4cc3-c3ccccc3)cc2)CCC1
Procedure, shortened: as §1

Measured: log2 fold change

RRP9 (UniProt O43818)
inactive: lapatinib -0.024 | pictilisib 0.001 | crizotinib -0.049 | [1] -0.11 | duvelisib -0.054 | gandotinib 0 | tozasertib 0.235 | doramapimod 0.018 | bafetinib -0.197 | [2] 0.02 | nilotinib 0.059 | [3] -0.016 | dasatinib 0.08 | [4] -0.019 | [5] 0.123 | quisinostat -0.125 | tipifarnib -0.002 | [6] 0.032 | [7] 0.014 | [8] 0.119

RTN4IP1 (UniProt Q8WWV3)
active: [3] -0.34
inactive: lapatinib -0.02 | pictilisib 0.017 | crizotinib -0.021 | [1] 0.056 | duvelisib 0.072 | gandotinib -0.057 | tozasertib 0.009 | doramapimod -0.016 | bafetinib 0.059 | [2] -0.048 | nilotinib -0.056 | dasatinib -0.046 | [4] -0.259 | [5] 0.028 | quisinostat -0.033 | tipifarnib 0.245 | [6] -0.055 | [7] -0.012 | [8] 0.148

RUVBL2 (UniProt Q9Y230)
inactive: lapatinib -0.02 | pictilisib -0.004 | crizotinib 0.003 | [1] -0.002 | duvelisib 0.01 | gandotinib -0.008 | tozasertib -0.012 | doramapimod -0.023 | bafetinib 0.016 | [2] -0.014 | nilotinib 0.006 | [3] 0.01 | dasatinib -0.014 | [4] 0.009 | [5] -0.001 | quisinostat 0.009 | tipifarnib -0.013 | [6] -0.01 | [7] -0.001 | [8] 0.008

RPLP1 (UniProt P05386)
inactive: lapatinib 0.034 | pictilisib -0.003 | crizotinib 0.015 | [1] 0.051 | duvelisib 0.056 | gandotinib 0.022 | tozasertib -0.095 | doramapimod 0.052 | bafetinib -0.027 | [2] -0.105 | nilotinib 0.015 | [3] -0.114 | dasatinib -0.015 | [4] 0.048 | [5] -0.006 | quisinostat 0.014 | tipifarnib -0.039 | [6] 0.046 | [7] -0.099 | [8] -0.019

RPRD2 (UniProt Q5VT52)
inactive: lapatinib -0.001 | pictilisib -0.043 | crizotinib 0.013 | [1] 0.027 | duvelisib 0.029 | gandotinib -0.097 | tozasertib 0.021 | doramapimod -0.016 | bafetinib 0.006 | [2] -0.006 | nilotinib 0.006 | [3] 0.009 | dasatinib -0.07 | [4] 0.004 | [5] -0.074 | quisinostat 0.037 | tipifarnib -0.187 | [6] 0.076 | [7] -0.016 | [8] 0.08

RTN3 (UniProt O95197)
inactive: lapatinib -0.024 | pictilisib 0.007 | crizotinib 0.012 | [1] -0.183 | duvelisib 0.001 | gandotinib 0.062 | tozasertib 0.016 | doramapimod -0.024 | bafetinib -0.038 | [2] 0.04 | nilotinib 0.033 | [3] -0.012 | dasatinib -0.017 | [4] -0.001 | [5] -0.007 | quisinostat 0.014 | tipifarnib -0.026 | [6] 0.033 | [7] -0.007 | [8] 0.007

RTN3 isoform 5 (UniProt O95197)
inactive: lapatinib -0.109 | pictilisib -0.065 | crizotinib -0.023 | [1] -0.039 | duvelisib 0.008 | gandotinib 0.077 | tozasertib -0.082 | doramapimod -0.051 | bafetinib -0.124 | [2] -0.009 | nilotinib -0.031 | [3] -0.038 | dasatinib -0.115 | [4] 0.09 | [5] -0.024 | quisinostat -0.046 | tipifarnib -0.054 | [6] -0.09 | [7] -0.035 | [8] 0.009

RPP25 (UniProt Q9BUL9)
inactive: lapatinib 0.034 | pictilisib -0.014 | crizotinib -0.014 | [1] 0.015 | duvelisib -0.003 | gandotinib -0.012 | tozasertib -0.056 | doramapimod 0.011 | bafetinib -0.105 | [2] -0.037 | nilotinib 0.054 | [3] 0.142 | dasatinib 0.116 | [4] 0 | [5] 0.009 | quisinostat 0.193 | tipifarnib -0.083 | [6] -0.027 | [7] 0.012 | [8] 0.036

RRM2B isoform 6 (UniProt Q7LG56)
inactive: lapatinib 0.015 | pictilisib -0.004 | crizotinib 0.017 | [1] -0.041 | duvelisib -0.001 | gandotinib 0.078 | tozasertib 0.023 | doramapimod 0.007 | bafetinib 0.003 | [2] 0.006 | nilotinib -0.01 | [3] -0.014 | dasatinib 0.041 | [4] -0.062 | [5] 0.005 | quisinostat 0.011 | tipifarnib -0.054 | [6] -0.021 | [7] -0.048 | [8] -0.002

RUFY3 isoform 3 (UniProt Q7L099)
inactive: lapatinib -0.007 | pictilisib -0.02 | crizotinib 0.028 | [1] 0.015 | duvelisib 0.029 | gandotinib -0.049 | tozasertib 0.046 | doramapimod -0.009 | bafetinib -0.007 | [2] 0.008 | nilotinib -0.022 | [3] 0.005 | dasatinib -0.028 | [4] -0.018 | [5] 0.008 | quisinostat 0.029 | tipifarnib 0.017 | [6] -0.008 | [7] 0.022 | [8] -0.02

RPS24 isoform 4 (UniProt P62847)
inactive: lapatinib -0.048 | pictilisib 0.007 | crizotinib -0.022 | [1] 0.008 | duvelisib 0.022 | gandotinib -0.028 | tozasertib -0.01 | doramapimod 0.006 | bafetinib -0.016 | [2] 0.01 | nilotinib 0.001 | [3] -0.023 | dasatinib 0.017 | [4] -0.017 | [5] -0.006 | quisinostat -0.006 | tipifarnib 0.008 | [6] -0.027 | [7] -0.023 | [8] -0.022

RPSA (UniProt P08865)
inactive: lapatinib -0.007 | pictilisib 0.038 | crizotinib -0.046 | [1] -0.03 | duvelisib 0.002 | gandotinib -0.009 | tozasertib 0.017 | doramapimod -0.006 | bafetinib -0.017 | [2] 0.035 | nilotinib -0.022 | [3] -0.016 | dasatinib 0.014 | [4] -0.012 | [5] 0.033 | quisinostat -0.019 | tipifarnib 0 | [6] -0.002 | [7] 0.011 | [8] -0.011

RPL7 (UniProt P18124)
inactive: lapatinib -0.033 | pictilisib 0.011 | crizotinib 0.008 | [1] 0.016 | duvelisib 0.014 | gandotinib 0.008 | tozasertib -0.052 | doramapimod -0.04 | bafetinib 0.022 | [2] 0.013 | nilotinib 0.02 | [3] -0.017 | dasatinib 0.009 | [4] 0.005 | [5] -0.028 | quisinostat 0.015 | tipifarnib 0.018 | [6] -0.005 | [7] -0.013 | [8] 0.002

RPL9 (UniProt P32969)
inactive: lapatinib -0.005 | pictilisib 0.016 | crizotinib 0.042 | [1] 0.072 | duvelisib 0 | gandotinib -0.099 | tozasertib -0.019 | doramapimod -0.019 | bafetinib 0.003 | [2] -0.056 | nilotinib -0.001 | [3] 0.014 | dasatinib 0.009 | [4] -0.016 | [5] -0.025 | quisinostat 0.083 | tipifarnib 0.04 | [6] -0.038 | [7] -0.031 | [8] 0.002

RWDD1 (UniProt Q9H446)
inactive: lapatinib 0.026 | pictilisib 0.01 | crizotinib 0.071 | [1] 0.069 | duvelisib 0.006 | gandotinib -0.016 | tozasertib 0.036 | doramapimod -0.11 | bafetinib -0.025 | [2] -0.059 | nilotinib -0.062 | [3] 0.012 | dasatinib 0.045 | [4] 0 | [5] 0.015 | quisinostat 0.157 | tipifarnib -0.001 | [6] -0.006 | [7] 0.003 | [8] -0.006
